This assay can be described thus: qHTS Assay for Modulators of Lamin A Splicing. The following applies: HeLa LMNA splicing GFP/RFP minigene ratio, 48 h. In short, it runs like this:
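S3 HeLa cells stably expressing lamin A-EGFP splicing minigene plus DsRed2, 600 cells/well, 48 h compound exposure at 37C. Laser-scanning cytometry; analysed as GFP (500-530 nm)/RFP (575-640 nm) total intensity ratio; 0.5% DMSO vehicle.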
In general terms: In qHTS, concentration-response curves come from the screen itself.

Setting [1] is: measured here: GFP splicing reporter channel.
Where [2] appears, read: measured here: RFP viability control channel.

Structures are written as SMILES. The list shows a part of the results. The main result of the screen is listed elsewhere. These columns were measured beside it and carry no call. Compounds called inactive in the main read-out are mostly missing here. Words in brackets tell the shape of the fitted curve; partial curves, single points and poor fits give uncertain potencies.

This note sets out measurements from PubChem BioAssay AID1487 (National Center for Advancing Translational Sciences (NCATS), 2009).

Consider `CCOC(=O)N1CCC(n2c(SCC(=O)OCc3ccccc3)nc3ccsc3c2=O)CC1`, for which the AC50 (in general, the midpoint of the concentration-response curve, whichever way the signal moves) runs as follows: under setting [1], 11.2 µM [rising, partial curve]; under setting [2], 17.8 µM [rising, single point].

As for `CC1=NN(c2ccccc2)C(=O)C1N=Nc1ccccc1` (stereo unspecified), under setting [2], the half-maximal activity concentration (AC50) is 31.6 µM [rising, single point].

With `O=C1CSC(c2ccccc2Br)N1c1ccc(Cl)cn1` (stereo unspecified), under setting [1], the concentration at half-maximal activity (AC50) is 0.0224 µM [rising, full curve, poor fit].

Turning to `COc1ccccc1C(CC(=O)Nc1ccc(Cl)cc1)c1ccc(OC(C)C)cc1` (stereo unspecified), the concentration at half-maximal activity (AC50) under setting [2] was 10 µM [rising, partial curve].

`CCOC(=O)N1CCN(S(=O)(=O)c2ccc3c(c2)SCC(=O)N3)CC1`: under setting [2], the AC50 was 20 µM [rising, partial curve].

`c1ccc(Cc2nc(-c3ccccn3)no2)cc1`: under setting [1], the concentration at half-maximal activity (AC50) is 35.5 µM [rising, single point].

As for `Cc1ccccc1OCc1nnc(SCc2cc(=O)c3cc(F)ccc3[nH]2)n1C`, the AC50 under setting [1] was 0.0224 µM [rising, full curve, poor fit].

Turning to `C1CCN(C2CCN(c3nc4nonc4nc3N3CCSCC3)CC2)C1`, the AC50 runs as follows: under setting [1], 1.41 µM [falling, partial curve, poor fit]; under setting [2], 0.562 µM [falling, full curve].

`CC[C@H](c1ccc(O)cc1)[C@@H](CC)c1ccc(O)cc1`: the half-maximal activity concentration (AC50) by setting is: under setting [1], 0.447 µM [falling, full curve]; under setting [2], 0.316 µM [falling, full curve].

With `Cc1cc(C)c2c(C)c(C(=O)NCc3ccc(S(N)(=O)=O)cc3)oc2c1`, the concentration at half-maximal activity (AC50) is 2.82 µM [falling, partial curve] under setting [1] and 3.16 µM [falling, single point] under setting [2].

For `Cc1c(Nc2ncccc2C(=O)O)cccc1C(F)(F)F`, under setting [1], the AC50 is 0.00794 µM [rising, single point].

Take `CCCN(CCC)C(=O)CC(c1ccccc1)c1cc(Br)ccc1O` (stereo unspecified): under setting [2], the AC50 was 31.6 µM [rising, single point].

As for `Cc1ccccc1N=C1N=C(N)c2ccccc21`, the half-maximal activity concentration (AC50) under setting [2] is 20 µM [rising, partial curve, poor fit].

As to `O=C(CN1CCN(CCN2C(=O)c3cccc4cccc(c34)C2=O)CC1)c1ccc(F)cc1`, the half-maximal activity concentration (AC50) under setting [2] was 35.5 µM [rising, single point].

`COc1ccc(-n2cc(CN3CCCC3)c(-c3cccc(F)c3)n2)cc1`: the AC50 under setting [1] is 7.94 µM [falling, full curve, poor fit] and the half-maximal activity concentration (AC50) under setting [2] is 5.62 µM [falling, partial curve, poor fit].

For `COC(=O)COc1ccc(S(=O)(=O)NCc2ccncc2)cc1`, under setting [2], the AC50 was 12.6 µM [rising, single point].

Consider `Cc1ccc(C(=O)OCC(=O)Nc2cccc(Cl)c2C)c(O)c1`, for which the AC50 under setting [1] was 0.00355 µM [rising, full curve, poor fit] and the AC50 under setting [2] was 0.0398 µM [rising, full curve, poor fit].

Regarding `Cc1ccc(NC(=O)Cc2c(Cl)cccc2Cl)cc1S(=O)(=O)N(C)C`, the AC50 runs as follows: under setting [1], 12.6 µM [rising, single point]; under setting [2], 22.4 µM [rising, single point].

As to `Cc1cccc(NS(=O)(=O)c2cccc([N+](=O)[O-])c2)n1`, the AC50 under setting [2] was 0.0141 µM [falling, partial curve, poor fit].

`Cn1cccc1CNC(=S)Nc1ccccc1F`: under setting [2], the AC50 is 1.78 µM [falling, partial curve, poor fit].

For `COc1ccc(CNC(=O)C2CCN(S(=O)(=O)N3CCC(C)CC3)CC2)c(OC)c1`, under setting [1], the AC50 is 0.0794 µM [falling, partial curve, poor fit].

On to `CC1(C)CC(N(Cc2ccccc2)C(=O)Cc2ccccc2)CCO1` (stereo unspecified), for which the AC50 under setting [2] is 3.98 µM [falling, partial curve].

On to `CCCC(O)(CCC)C(=O)NN(C(=O)CCl)c1ccccc1`, for which the AC50 under setting [1] was 35.5 µM [falling, single point] and the AC50 under setting [2] is 2.24 µM [rising, partial curve, poor fit].

Regarding `Cn1cc(S(=O)(=O)N2CCc3ccccc32)cc1C(=O)Nc1ccc(C(F)(F)F)cc1`, the half-maximal activity concentration (AC50) runs as follows: under setting [1], 5.62 µM [rising, partial curve, poor fit]; under setting [2], 17.8 µM [rising, partial curve].

As to `CN1CC(=O)N(CC(=O)Nc2cc(Cl)cc(Cl)c2)C1=O`, the concentration at half-maximal activity (AC50) under setting [1] is 5.01 µM [falling, full curve].

As for `CCc1ccc(NC(=O)CSc2nc3c([nH]c4ccccc43)c(=O)n2C)cc1`, the half-maximal activity concentration (AC50) by setting is: under setting [1], 0.158 µM [falling, full curve, poor fit]; under setting [2], 20 µM [falling, single point].

As for `CC(C)(C)NC(=O)/C=C/c1cccs1`, under setting [2], the AC50 was 0.178 µM [falling, full curve].

For the compound `CC(C)(C)C(=O)Nc1ccccc1C(=O)Nc1cc(Cl)ccc1Cl`, the concentration at half-maximal activity (AC50) under setting [1] was 20 µM [rising, single point].

For the compound `CC(=O)C1=C(O)C(=O)OC1c1ccc(C)cc1` (stereo unspecified), the AC50 under setting [2] was 3.16 µM [falling, full curve, poor fit].

In the case of `NC(=O)c1ccc(N2CCN(c3ccccc3O)CC2)c([N+](=O)[O-])c1`, the half-maximal activity concentration (AC50) was 0.00447 µM [falling, full curve, poor fit] under setting [1] and 0.00447 µM [falling, full curve, poor fit] under setting [2].

Take `COc1ccc(C(=O)NC(=S)NNC(=O)c2cnccn2)cc1`: the AC50 under setting [2] was 5.62 µM [rising, single point].

Turning to `O=C(Nc1ccc(Cl)c(S(=O)(=O)N2CCOCC2)c1)c1ccccc1-c1ccc(C(F)(F)F)cc1`, the AC50 is, setting by setting: under setting [1], 11.2 µM [rising, partial curve]; under setting [2], 11.2 µM [rising, partial curve].

`Cc1cc(C)n2nc(SCc3nnc(SCc4ccccc4)s3)nc2n1`: the AC50 was 11.2 µM [rising, single point] under setting [1] and 15.8 µM [rising, single point] under setting [2].

Regarding `COc1ccc(CCNC(=O)c2c(Nc3ccccc3C)sc(C(=O)c3ccccc3)c2N)cc1OC`, the AC50 under setting [2] was 35.5 µM [rising, single point].

Take `Cc1sc2ncnc(Sc3nnc4sc5ccccc5n34)c2c1C`: under setting [2], the half-maximal activity concentration (AC50) is 5.62 µM [rising, single point].

Take `COC/C=C/C1=CC2=CC(=O)C(C)(OC(=O)c3cnc4ccccc4n3)C(=O)C2=CN1C1CCCCC1` (stereo unspecified): the AC50 under setting [2] is 3.55 µM [rising, single point].

As to `COc1cc2c(cc1O)CCC1C2CC[C@]2(C)[C@@H](O)CC[C@@H]12` (stereo partly specified), the concentration at half-maximal activity (AC50) reads like this: under setting [1], 1.78 µM [falling, full curve]; under setting [2], 2.51 µM [falling, full curve].

For the compound `COc1ccc(C(c2nnnn2C2CCCC2)N2CCN(c3ccccc3)CC2)cc1` (stereo unspecified), under setting [2], the AC50 is 15.8 µM [rising, single point].

For the compound `Cc1ccc(NS(=O)(=O)c2ccc(C3CCCCC3)cc2)cc1`, the AC50 under setting [2] was 12.6 µM [rising, partial curve].

For the compound `COc1ccc(S(=O)(=O)N2CCN(C(=O)c3cc(C)oc3C)CC2)cc1`, the AC50 under setting [2] is 5.62 µM [rising, partial curve].

Regarding `O=C(NC(=S)Nc1ccc(N2CCCC2)cc1)c1ccccc1[N+](=O)[O-]`, the AC50 under setting [1] was 0.126 µM [rising, full curve, poor fit].

As to `Cc1ccc(NC(=O)Nc2nnc(CSCCOc3ccc(Cl)cc3)s2)cc1`, the AC50 is 7.08 µM [rising, partial curve, poor fit] under setting [1] and 11.2 µM [rising, partial curve] under setting [2].

As for `Cc1nc2c(C)cccc2cc1C(=O)N/N=C/c1ccc(O)cc1`, the half-maximal activity concentration (AC50) under setting [2] was 20 µM [rising, single point].

Take `COc1cccc(CNC(=O)c2cc3cc(C)ccc3n2C)c1`: the concentration at half-maximal activity (AC50) by setting is: under setting [1], 3.16 µM [falling, partial curve]; under setting [2], 12.6 µM [rising, partial curve].

In the case of `Cc1no[n+]([O-])c1COc1cccc(/C=C2\N=C(c3ccccc3)OC2=O)c1`, the concentration at half-maximal activity (AC50) under setting [2] was 20 µM [rising, single point].

Regarding `CC(=O)c1c(C)n(-c2ccccc2)c2ccc(O)cc12`, the concentration at half-maximal activity (AC50) under setting [2] is 31.6 µM [rising, single point].

Regarding `Cc1cccc(OCc2nnc(SCC(=O)Nc3cccc(C(=O)N4CCOCC4)c3)n2C)c1`, the AC50 under setting [1] was 35.5 µM [rising, single point].

In the case of `Cc1cc(C(=O)CSc2nnnn2-c2ccccc2)c(C)n1-c1ccc2c(c1)OCO2`, the AC50 reads like this: under setting [1], 8.91 µM [rising, partial curve]; under setting [2], 7.94 µM [rising, partial curve].

For the compound `COCCn1c(=O)c(-c2ccccc2)nc2cnc(Nc3cccc(OC)c3)nc21`, the AC50 under setting [1] was 20 µM [falling, partial curve, poor fit] and the AC50 under setting [2] was 15.8 µM [falling, partial curve].

Consider `CC(O)C(NS(=O)(=O)c1ccc(Cl)cc1)C(=O)OCc1nnc(-c2ccccc2)o1` (stereo unspecified), for which the AC50 under setting [1] was 35.5 µM [falling, partial curve, poor fit] and the half-maximal activity concentration (AC50) under setting [2] is 35.5 µM [falling, partial curve, poor fit].

In the case of `C#Cc1cccc(-n2nnc(C(C)=O)c2C)c1`, the AC50 under setting [2] was 7.08 µM [falling, full curve].

For the compound `CCOC(=O)N1CCN(C(=O)c2ccc3c(=O)n4c(nc3c2)CCCCC4)CC1`, the AC50 under setting [1] is 0.178 µM [falling, full curve, poor fit].

In the case of `CC#CCN1C(=O)N[C@@H](c2ccccc2)C(C(=O)OC)=C1C`, under setting [2], the AC50 is 0.316 µM [falling, full curve, poor fit].

As to `COc1cccc(-c2cncnc2NCc2ccccc2OC)c1`, the AC50 was 22.4 µM [falling, single point] under setting [1] and 31.6 µM [falling, single point] under setting [2].

Take `O=C1c2cccc3cccc(c23)C(=O)N1CCCN1CCN(c2ccc(F)cc2)CC1`: the AC50 is 5.62 µM [rising, partial curve, poor fit] under setting [1] and 11.2 µM [rising, partial curve, poor fit] under setting [2].
